The values that follow come from the supplement of paper PMC8269313.

This experiment relates to 4T1. Put plainly: % inhibition of 4T1 cell number vs DMSO control; higher = stronger growth inhibition. Particulars: 1 µM, 3 days. The method, boiled down:
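In 96-well imaging plates whose edge wells went unused, 3000 4T1-H2B-GFP mouse breast cancer cells per well were seeded in 2% FBS medium onto plastic, denuded lung matrix, mCAF1 fibroblast-derived matrix, Matrigel (15 μg/mL) or 0.2% gelatin. Sixteen hours on, kinase inhibitors went in at 1 μM final for 3 days before formalin fixation, DAPI staining and imaging on an INCell Analyzer 2200. Counting of GFP-positive nuclei gave cell numbers, from which percent inhibition relative to control was derived.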

The entries are a selection whose mix differs from that of the whole data set.

For `O=C1Nc2ccc(-c3cccnc3)cc2/C1=C/c1ccc[nH]1` [JAK3 Inhibitor VI], the “% inhibition of 4T1 cell number” value is -19.4% (substrate: Matrigel); -11% (substrate: gelatin); 1.34% (substrate: lung fibroblast-derived matrix); 32.6% (substrate: mCAF1 fibroblast-derived matrix); 32.5% (substrate: plastic).
